Laboratory results: the supplement of paper PMC8728848
Some of the results follow.

Experiments:
Assay in all cases: glycan array binding signal (z-score within array); higher = stronger binding
Conditions in all cases: glycan notation: IUPAC condensed, linker removed
Gal6S(b1-4)Glc6S = molecular target: Gal6S(b1-4)Glc6S
Summary of the method: (§1)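 Glycan array binding is given as a within-array Z-score, which can be read as non-binding when negative. The arrays, 3228 of them, came from the Consortium for Functional Glycomics database and were retained only where the protein sequence was available. Z-scores were averaged across arrays of the same protein sequence at different concentrations or buffers and across linkers.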

Gal6S(b1-4)GlcNAc = molecular target: Gal6S(b1-4)GlcNAc
Summary of the method: as §1

Gal6S(b1-4)GlcNAc6S = molecular target: Gal6S(b1-4)GlcNAc6S
Summary of the method: as §1

GalNAc(a1-3)Gal = molecular target: GalNAc(a1-3)Gal
Summary of the method: as §1

GalNAc(a1-3)GalNAc = molecular target: GalNAc(a1-3)GalNAc
Summary of the method: as §1

[1] = molecular target: GalNAc(a1-3)GalNAc(b1-3)Gal(a1-4)Gal(b1-4)Glc
Summary of the method: as §1

[2] = molecular target: GalNAc(a1-3)GalNAc(b1-3)Gal(a1-4)Gal(b1-4)GlcNAc
Summary of the method: as §1

GalNAc(b1-3)Gal = molecular target: GalNAc(b1-3)Gal
Summary of the method: as §1

[3] = molecular target: GalNAc(b1-3)Gal(a1-4)Gal(b1-4)GlcNAc
Summary of the method: as §1

[4] = molecular target: GalNAc(b1-3)Gal(a1-4)Gal(b1-4)GlcNAc(b1-3)Gal(b1-4)Glc
Summary of the method: as §1

[5] = molecular target: GalNAc(b1-3)Gal(a1-6)Gal(b1-4)Glc
Summary of the method: as §1

GalNAc(b1-3)GalNAc = molecular target: GalNAc(b1-3)GalNAc
Summary of the method: as §1

GalNAc(b1-3)GlcNAc = molecular target: GalNAc(b1-3)GlcNAc
Summary of the method: as §1

GalNAc(b1-4)Gal(b1-4)Glc = molecular target: GalNAc(b1-4)Gal(b1-4)Glc
Summary of the method: as §1

GalNAc(b1-4)GlcNAc = molecular target: GalNAc(b1-4)GlcNAc
Summary of the method: as §1

[6] = molecular target: GalNAc(b1-4)GlcNAc(b1-2)Man
Summary of the method: as §1

[7] = molecular target: GalNAc(b1-4)GlcNAc(b1-2)Man(a1-3)[GalNAc(b1-4)GlcNAc(b1-2)Man(a1-6)]Man(b1-4)GlcNAc(b1-4)GlcNAc
Summary of the method: as §1

[8] = molecular target: GalNAc(b1-4)GlcNAc(b1-3)GalNAc(b1-4)GlcNAc
Summary of the method: as §1

GalNAc(b1-4)GlcNAc6S = molecular target: GalNAc(b1-4)GlcNAc6S
Summary of the method: as §1

GalNAc(b1-6)GalNAc = molecular target: GalNAc(b1-6)GalNAc
Summary of the method: as §1

GalNAc3S(b1-4)GlcNAc = molecular target: GalNAc3S(b1-4)GlcNAc
Summary of the method: as §1

GalNAc3S(b1-4)GlcNAc3S = molecular target: GalNAc3S(b1-4)GlcNAc3S
Summary of the method: as §1

[9] = molecular target: GalNAc3S(b1-4)[Fuc(a1-3)]GlcNAc
Summary of the method: as §1

GalNAc4S6S(b1-4)GlcNAc = molecular target: GalNAc4S6S(b1-4)GlcNAc
Summary of the method: as §1

GalNAc6S(b1-4)GlcNAc = molecular target: GalNAc6S(b1-4)GlcNAc
Summary of the method: as §1

Glc(a1-4)Glc = molecular target: Glc(a1-4)Glc
Summary of the method: as §1

[10] = molecular target: Glc(a1-4)Glc(a1-4)Glc(a1-4)Glc
Summary of the method: as §1

Glc(a1-6)Glc(a1-6)Glc = molecular target: Glc(a1-6)Glc(a1-6)Glc
Summary of the method: as §1

[11] = molecular target: Glc(a1-6)Glc(a1-6)Glc(a1-6)Glc
Summary of the method: as §1

Glc(b1-4)Glc = molecular target: Glc(b1-4)Glc
Summary of the method: as §1

Glc(b1-6)Glc = molecular target: Glc(b1-6)Glc
Summary of the method: as §1

GlcA(b1-3)Gal = molecular target: GlcA(b1-3)Gal
Summary of the method: as §1

GlcA(b1-3)GlcNAc = molecular target: GlcA(b1-3)GlcNAc
Summary of the method: as §1

GlcA(b1-6)Gal = molecular target: GlcA(b1-6)Gal
Summary of the method: as §1

[12] = molecular target: GlcA3S(b1-3)Gal(b1-4)GlcNAc(b1-2)Man
Summary of the method: as §1

[13] = molecular target: GlcA3S(b1-3)Gal(b1-4)GlcNAc(b1-3)Gal(b1-4)Glc
Summary of the method: as §1

[14] = molecular target: GlcNAc(a1-3)Gal(b1-4)GlcNAc
Summary of the method: as §1

B1: ArathEULS3 TAP (Arabidopsis thaliana) (protein)
chain: IDENLYFQGGSMDEKTTGWRGGHVVEGLAGELEQLRARLEHHPQGQREPGGGGSLEITSLYKKAGFMEHHHQHHRHHQRDDGEDDRQSFGVPPPHVDAPPQPHGLYQSQPHFDPYAPTPQAPAPYRSETQFEPHAPPPYRSEPYFETPAPPPSFGHVSHVGHQSPNESYPPEHHRYGGYQQPSNSLLESHGDHSGVTHVAHHSSNQPQSSSGVYHKPDENRLPDNLAGLAGRATVKVYSKAEPNYNLTIRDGKVILAPADPSDEAQHWYKDEKYSTKVKDADGHPCFALVNKATGEAMKHSVGATHPVHLIRYVPDKLDESVLWTESKDFGDGYRTIRMVNNTRLNVDAYHGDSKSGGVRDGTTIVLWDWNKGDNQLWKIFPF
Gal6S(b1-4)Glc6S
  glycan array binding signal (z-score): 1.58
Gal6S(b1-4)GlcNAc
  glycan array binding signal (z-score): 0.324
Gal6S(b1-4)GlcNAc6S
  glycan array binding signal (z-score): 1.4
GalNAc(a1-3)Gal
  glycan array binding signal (z-score): -0.237
GalNAc(a1-3)GalNAc
  glycan array binding signal (z-score): 0.515
[1]
  glycan array binding signal (z-score): 0.997
[2]
  glycan array binding signal (z-score): 1.86
GalNAc(b1-3)Gal
  glycan array binding signal (z-score): 0.771
[3]
  glycan array binding signal (z-score): 1.33
[4]
  glycan array binding signal (z-score): 0.972
[5]
  glycan array binding signal (z-score): -0.875
GalNAc(b1-3)GalNAc
  glycan array binding signal (z-score): -0.701
GalNAc(b1-3)GlcNAc
  glycan array binding signal (z-score): -0.83
GalNAc(b1-4)Gal(b1-4)Glc
  glycan array binding signal (z-score): -0.58
GalNAc(b1-4)GlcNAc
  glycan array binding signal (z-score): 0.431
[6]
  glycan array binding signal (z-score): -1.75
[7]
  glycan array binding signal (z-score): 0.543
[8]
  glycan array binding signal (z-score): 0.218
GalNAc(b1-4)GlcNAc6S
  glycan array binding signal (z-score): 1.07
GalNAc(b1-6)GalNAc
  glycan array binding signal (z-score): 0.37
GalNAc3S(b1-4)GlcNAc
  glycan array binding signal (z-score): -0.134
GalNAc3S(b1-4)GlcNAc3S
  glycan array binding signal (z-score): -0.609
[9]
  glycan array binding signal (z-score): -1.44
GalNAc4S6S(b1-4)GlcNAc
  glycan array binding signal (z-score): -1.01
GalNAc6S(b1-4)GlcNAc
  glycan array binding signal (z-score): 0.057
Glc(a1-4)Glc
  glycan array binding signal (z-score): -0.491
[10]
  glycan array binding signal (z-score): -0.904
Glc(a1-6)Glc(a1-6)Glc
  glycan array binding signal (z-score): -0.209
[11]
  glycan array binding signal (z-score): 1.67
Glc(b1-4)Glc
  glycan array binding signal (z-score): 0.113
Glc(b1-6)Glc
  glycan array binding signal (z-score): -1.73
GlcA(b1-3)Gal
  glycan array binding signal (z-score): -0.233
GlcA(b1-3)GlcNAc
  glycan array binding signal (z-score): -0.1
GlcA(b1-6)Gal
  glycan array binding signal (z-score): 1.39
[12]
  glycan array binding signal (z-score): -1
[13]
  glycan array binding signal (z-score): -1.9
[14]
  glycan array binding signal (z-score): -1.28
